# Test results from the supplement of paper PMC11732987, “Enantioselective OTUD7B fragment discovery through chemoproteomics screening and high-throughput optimisation” (Communications Chemistry, 2025).
# Protein sequences, listed by entry. Tags and fused reporters are not part of them. Lines headed by an entry give the natural chain unless they say otherwise; changes in a name come on top. Residues count along the entry.
# UniProt Q5TAX3, 776-804: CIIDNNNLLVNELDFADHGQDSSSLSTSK
# UniProt Q05086: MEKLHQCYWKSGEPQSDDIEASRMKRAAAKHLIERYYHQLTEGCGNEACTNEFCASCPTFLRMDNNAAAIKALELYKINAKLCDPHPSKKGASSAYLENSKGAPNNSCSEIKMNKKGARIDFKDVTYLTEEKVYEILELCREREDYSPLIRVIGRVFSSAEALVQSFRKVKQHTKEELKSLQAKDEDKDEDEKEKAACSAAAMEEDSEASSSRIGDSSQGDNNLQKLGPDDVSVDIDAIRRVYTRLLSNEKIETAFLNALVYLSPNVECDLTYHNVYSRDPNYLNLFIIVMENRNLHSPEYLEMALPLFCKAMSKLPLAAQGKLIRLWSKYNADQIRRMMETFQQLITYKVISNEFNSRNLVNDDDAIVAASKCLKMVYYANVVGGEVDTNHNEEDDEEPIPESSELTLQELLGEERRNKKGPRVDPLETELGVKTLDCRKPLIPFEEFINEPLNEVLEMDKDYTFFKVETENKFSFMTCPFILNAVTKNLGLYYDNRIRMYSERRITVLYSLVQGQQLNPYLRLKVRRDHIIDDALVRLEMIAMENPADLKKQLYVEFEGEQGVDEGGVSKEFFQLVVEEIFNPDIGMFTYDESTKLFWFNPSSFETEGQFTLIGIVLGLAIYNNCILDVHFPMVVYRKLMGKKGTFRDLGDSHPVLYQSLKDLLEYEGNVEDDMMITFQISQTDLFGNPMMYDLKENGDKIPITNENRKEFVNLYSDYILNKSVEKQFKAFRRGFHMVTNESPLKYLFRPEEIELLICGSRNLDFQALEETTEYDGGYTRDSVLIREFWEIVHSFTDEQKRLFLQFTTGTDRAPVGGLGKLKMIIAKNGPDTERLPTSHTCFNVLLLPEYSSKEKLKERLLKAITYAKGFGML
# UniProt Q96N46: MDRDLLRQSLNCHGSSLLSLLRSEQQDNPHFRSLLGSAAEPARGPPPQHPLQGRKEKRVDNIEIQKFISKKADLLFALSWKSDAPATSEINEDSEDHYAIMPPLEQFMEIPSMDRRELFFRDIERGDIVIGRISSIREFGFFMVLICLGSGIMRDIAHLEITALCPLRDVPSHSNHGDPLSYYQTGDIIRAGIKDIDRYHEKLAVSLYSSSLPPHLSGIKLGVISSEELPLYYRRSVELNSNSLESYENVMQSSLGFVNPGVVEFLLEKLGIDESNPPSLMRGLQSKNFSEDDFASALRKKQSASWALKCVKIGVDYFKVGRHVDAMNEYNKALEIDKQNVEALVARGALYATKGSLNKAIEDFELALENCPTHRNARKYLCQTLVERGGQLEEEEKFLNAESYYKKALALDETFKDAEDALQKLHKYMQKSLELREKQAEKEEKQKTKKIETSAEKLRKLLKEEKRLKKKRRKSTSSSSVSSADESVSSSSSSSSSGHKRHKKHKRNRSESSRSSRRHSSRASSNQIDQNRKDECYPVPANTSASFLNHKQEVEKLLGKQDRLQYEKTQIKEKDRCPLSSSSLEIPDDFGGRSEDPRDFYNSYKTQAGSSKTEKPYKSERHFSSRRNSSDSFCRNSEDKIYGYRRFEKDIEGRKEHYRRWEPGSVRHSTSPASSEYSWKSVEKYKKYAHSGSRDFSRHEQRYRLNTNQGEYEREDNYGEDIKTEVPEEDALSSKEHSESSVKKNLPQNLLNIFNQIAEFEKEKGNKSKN
# UniProt Q8NG11: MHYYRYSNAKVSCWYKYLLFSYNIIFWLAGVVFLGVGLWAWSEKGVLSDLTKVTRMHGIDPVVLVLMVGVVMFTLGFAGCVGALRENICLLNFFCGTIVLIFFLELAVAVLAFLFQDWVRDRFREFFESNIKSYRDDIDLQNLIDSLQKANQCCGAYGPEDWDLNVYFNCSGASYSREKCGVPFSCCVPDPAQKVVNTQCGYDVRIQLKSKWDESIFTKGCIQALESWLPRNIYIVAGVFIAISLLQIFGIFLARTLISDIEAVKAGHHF
# UniProt Q7Z6J9: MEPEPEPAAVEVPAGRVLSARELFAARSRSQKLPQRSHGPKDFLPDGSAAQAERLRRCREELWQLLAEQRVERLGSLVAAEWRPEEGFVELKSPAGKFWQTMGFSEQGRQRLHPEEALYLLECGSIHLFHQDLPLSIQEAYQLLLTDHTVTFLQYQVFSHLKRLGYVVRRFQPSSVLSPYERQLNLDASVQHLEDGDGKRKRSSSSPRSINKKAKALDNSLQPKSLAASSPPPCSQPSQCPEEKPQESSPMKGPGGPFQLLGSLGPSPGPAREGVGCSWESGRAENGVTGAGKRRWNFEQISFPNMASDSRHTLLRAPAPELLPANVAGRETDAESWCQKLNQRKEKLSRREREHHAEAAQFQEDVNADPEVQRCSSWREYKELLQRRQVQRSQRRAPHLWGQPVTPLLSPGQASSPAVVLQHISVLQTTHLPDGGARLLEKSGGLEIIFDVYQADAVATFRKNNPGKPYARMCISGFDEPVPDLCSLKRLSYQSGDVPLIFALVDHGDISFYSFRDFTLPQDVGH
# UniProt Q6PGP7, whole entry, looked up: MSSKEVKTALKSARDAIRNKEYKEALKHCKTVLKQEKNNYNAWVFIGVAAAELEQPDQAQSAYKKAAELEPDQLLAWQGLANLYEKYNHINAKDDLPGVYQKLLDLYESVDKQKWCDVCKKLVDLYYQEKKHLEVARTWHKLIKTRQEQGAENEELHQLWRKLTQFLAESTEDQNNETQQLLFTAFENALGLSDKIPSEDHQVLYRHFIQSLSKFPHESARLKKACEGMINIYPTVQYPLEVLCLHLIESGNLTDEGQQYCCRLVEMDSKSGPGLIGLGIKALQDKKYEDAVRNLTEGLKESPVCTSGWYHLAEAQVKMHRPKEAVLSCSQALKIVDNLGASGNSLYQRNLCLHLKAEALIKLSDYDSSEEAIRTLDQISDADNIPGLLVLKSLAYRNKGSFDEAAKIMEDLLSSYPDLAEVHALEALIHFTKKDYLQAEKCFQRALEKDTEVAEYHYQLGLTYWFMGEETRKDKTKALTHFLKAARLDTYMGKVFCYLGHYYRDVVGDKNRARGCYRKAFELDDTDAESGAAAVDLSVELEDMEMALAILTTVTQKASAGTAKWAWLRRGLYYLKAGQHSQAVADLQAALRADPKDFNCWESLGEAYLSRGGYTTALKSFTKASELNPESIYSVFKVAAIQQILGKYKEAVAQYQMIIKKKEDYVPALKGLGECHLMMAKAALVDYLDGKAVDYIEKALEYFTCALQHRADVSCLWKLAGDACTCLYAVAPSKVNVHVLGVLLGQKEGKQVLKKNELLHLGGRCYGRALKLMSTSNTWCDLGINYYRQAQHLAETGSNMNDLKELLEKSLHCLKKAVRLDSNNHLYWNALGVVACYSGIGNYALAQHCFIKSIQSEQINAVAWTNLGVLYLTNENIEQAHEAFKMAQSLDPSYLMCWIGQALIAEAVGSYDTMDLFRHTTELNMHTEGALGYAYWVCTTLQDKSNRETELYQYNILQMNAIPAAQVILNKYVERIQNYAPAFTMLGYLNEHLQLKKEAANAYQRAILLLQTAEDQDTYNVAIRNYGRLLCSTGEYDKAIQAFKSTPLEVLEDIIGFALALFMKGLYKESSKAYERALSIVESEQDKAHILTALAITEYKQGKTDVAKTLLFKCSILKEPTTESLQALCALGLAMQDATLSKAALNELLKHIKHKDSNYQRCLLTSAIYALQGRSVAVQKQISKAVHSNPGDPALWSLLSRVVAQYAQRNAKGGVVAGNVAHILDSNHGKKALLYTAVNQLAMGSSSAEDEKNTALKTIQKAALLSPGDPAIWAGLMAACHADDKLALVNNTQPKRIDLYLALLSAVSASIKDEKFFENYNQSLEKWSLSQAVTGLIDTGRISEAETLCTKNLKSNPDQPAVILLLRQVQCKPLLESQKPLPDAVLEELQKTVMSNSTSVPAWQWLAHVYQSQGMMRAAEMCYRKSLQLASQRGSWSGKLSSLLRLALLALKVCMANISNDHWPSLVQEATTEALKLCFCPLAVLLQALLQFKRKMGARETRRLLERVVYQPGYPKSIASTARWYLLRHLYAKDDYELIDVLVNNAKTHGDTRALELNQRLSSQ
# UniProt Q7Z2T5: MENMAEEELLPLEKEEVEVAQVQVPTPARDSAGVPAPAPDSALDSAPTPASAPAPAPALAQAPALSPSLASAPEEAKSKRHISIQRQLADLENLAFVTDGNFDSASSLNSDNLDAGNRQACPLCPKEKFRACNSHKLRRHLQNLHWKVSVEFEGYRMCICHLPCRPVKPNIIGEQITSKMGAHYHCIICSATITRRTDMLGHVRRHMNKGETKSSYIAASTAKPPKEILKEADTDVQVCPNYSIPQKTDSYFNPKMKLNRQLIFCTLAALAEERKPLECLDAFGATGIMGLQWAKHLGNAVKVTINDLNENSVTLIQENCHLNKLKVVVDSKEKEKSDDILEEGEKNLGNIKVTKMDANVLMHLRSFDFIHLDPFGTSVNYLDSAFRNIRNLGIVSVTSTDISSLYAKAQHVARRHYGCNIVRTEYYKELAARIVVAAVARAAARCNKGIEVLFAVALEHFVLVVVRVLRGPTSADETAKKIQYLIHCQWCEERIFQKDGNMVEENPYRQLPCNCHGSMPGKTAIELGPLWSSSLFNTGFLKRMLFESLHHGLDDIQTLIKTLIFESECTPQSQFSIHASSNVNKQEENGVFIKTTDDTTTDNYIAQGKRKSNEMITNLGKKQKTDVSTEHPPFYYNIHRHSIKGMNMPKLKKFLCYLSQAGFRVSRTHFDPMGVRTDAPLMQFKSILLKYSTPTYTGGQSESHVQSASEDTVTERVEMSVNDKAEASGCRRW
# UniProt Q9BZL1: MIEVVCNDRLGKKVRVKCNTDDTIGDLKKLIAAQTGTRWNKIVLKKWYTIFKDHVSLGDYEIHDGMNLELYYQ
# UniProt Q8IZ69: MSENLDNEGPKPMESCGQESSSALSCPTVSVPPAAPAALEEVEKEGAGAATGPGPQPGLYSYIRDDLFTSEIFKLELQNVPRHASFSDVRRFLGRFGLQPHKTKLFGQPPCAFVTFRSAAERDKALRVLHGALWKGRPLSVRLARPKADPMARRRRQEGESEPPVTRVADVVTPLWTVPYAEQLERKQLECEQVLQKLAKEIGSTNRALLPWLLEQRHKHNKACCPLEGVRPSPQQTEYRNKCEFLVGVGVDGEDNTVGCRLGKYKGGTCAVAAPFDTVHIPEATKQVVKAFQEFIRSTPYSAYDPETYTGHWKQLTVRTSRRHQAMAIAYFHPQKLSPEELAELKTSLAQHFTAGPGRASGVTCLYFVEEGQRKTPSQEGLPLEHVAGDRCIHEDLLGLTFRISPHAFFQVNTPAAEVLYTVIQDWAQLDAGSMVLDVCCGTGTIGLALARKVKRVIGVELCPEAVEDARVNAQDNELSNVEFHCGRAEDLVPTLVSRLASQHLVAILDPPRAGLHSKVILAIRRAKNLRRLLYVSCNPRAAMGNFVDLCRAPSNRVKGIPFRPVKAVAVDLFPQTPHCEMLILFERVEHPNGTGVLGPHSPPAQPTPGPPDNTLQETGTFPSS
# Some of the results follow. The data scatter; read single values as rough.
# What was measured:
# [1] = compound: ClCC(=O)N[C@@H]1CCCc2ccccc12; assay: log2 mean competition ratio of IA-DTB cysteine labelling (DMSO/compound) (log2 ratio); higher = stronger cysteine engagement by compound; conditions: treatment time: 4 h, cell line lysate: HEK293T
# Protocol: (§1)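 IA-DTB competitive cysteine chemoproteomics in HEK293T RIPA lysate. Lysates were treated with compound 29 or 30 at 50 or 200 µM for 4 h, then IA-DTB (500 µM, 1 h), trypsin-digested, NeutrAvidin-enriched and analysed by diaPASEF. Competition ratio = intensity DMSO / intensity compound (n=4 treated, n=64 DMSO); binding: mean log2 CR ≥ 1 and p ≤ 0.05 plus QC filters. Target is the cysteine site.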
# [2] = compound: ClCC(=O)N[C@H]1CCCc2ccccc12; assay: as above; conditions: treatment time: 4 h, cell line lysate: HEK293T
# Protocol: as §1
Target,log2 mean competition ratio ([1]; 50 µM),log2 mean competition ratio ([1]; 200 µM),log2 mean competition ratio ([2]; 50 µM),log2 mean competition ratio ([2]; 200 µM)
TTC30A C93,0.0088,-0.336,0.526,-0.0255
UBR4 C3864 (UniProt Q5T4S7),-0.104,0.0394,-0.152,-0.0897
UBR4 C1970 (UniProt Q5T4S7),-0.00945,-0.398,-0.314,-0.378
TRRAP C3849 (UniProt Q9Y4A5),-0.237,0.311,0.106,0.0681
TUT4 C776 (UniProt Q5TAX3),-0.331,-0.763,,-0.691
UBE3A C108 (UniProt Q05086),-0.0542,-0.0169,-0.117,-0.0275
TTC14 C634 (UniProt Q96N46),-0.261,0.276,-0.25,0.204
TUT4 C852 (UniProt Q5TAX3),-0.23,0.615,-0.235,0.302
TSPAN14 C200 (UniProt Q8NG11),0.0941,0.11,-0.38,-0.0185
TSEN54 C58 (UniProt Q7Z6J9),0.0441,-0.0225,-0.302,0.0405
TUT4 C709 (UniProt Q5TAX3),-0.0889,-0.148,0.325,-0.0363
TTC37 C715 (UniProt Q6PGP7),0.00139,0.0553,-0.0583,0.113
TRMT1L C239 (UniProt Q7Z2T5),-0.249,-0.157,0.214,-0.0244
UBL5 C6 (UniProt Q9BZL1),-0.192,0.0305,0.00622,0.143
UBE2O C314,0.196,-0.0978,0.781,-0.00736
TRMT2A C191 (UniProt Q8IZ69),0.102,0.372,0.447,0.23

# Record cards, from the list above. Values in the order: log2 mean competition ratio ([1]; 50 µM) | log2 mean competition ratio ([1]; 200 µM) | log2 mean competition ratio ([2]; 50 µM) | log2 mean competition ratio ([2]; 200 µM)
# TRMT2A C191 (UniProt Q8IZ69) in the list: 0.102 | 0.372 | 0.447 | 0.23
# TTC14 C634 (UniProt Q96N46) in the list: -0.261 | 0.276 | -0.25 | 0.204
